Assay results taken from patent publication US4368192 (dated 1983).

Assay: general procedure: solution-phase peptide synthesis; DCCD/HOBT; DCCD/HOSU
Conditions: barium salt

## B--Arg(B2)--Asp(OtBu)--Tyr(SO2 Ba1/2)-Thr(tBu)--Gly--Trp--Leu--Asp(OtBu)--Phe--NH2
Coupling step
  step yield: 96%

## B--Tyr(SO3 Ba1/2)--Thr(tBu)--Gly--Trp--Leu-Asp(OtBu)--Phe--NH2
Coupling step
  step yield: 70%

## H--Arg--Asp(OtBu)--Tyr(SO3 H)-Thr(tBu)--Gly--Trp--Leu--Asp(OtBu)--Phe--NH2
Late stage modification step
  step yield: 83% of theoretical

## H-Tyr(SO3 Ba1/2)-Thr(tBu)--Gly--Trp--Leu--Asp(OtBu)-Phe-NH2
Late stage modification step
  step yield: 96% of theoretical
